Experimental data reported in the supplement of paper PMC10849652.
The list shows a part of the results. Residues, ends and D or L forms follow the SMILES beside them. *: point of attachment. Cbz = O=C(OCc1ccccc1)*

The chains behind the UniProt entries cited, without tags or fusion partners. Where a name states a change or a piece, a line headed by the entry shows the natural chain unless it says otherwise.
UniProt Q5VUA4: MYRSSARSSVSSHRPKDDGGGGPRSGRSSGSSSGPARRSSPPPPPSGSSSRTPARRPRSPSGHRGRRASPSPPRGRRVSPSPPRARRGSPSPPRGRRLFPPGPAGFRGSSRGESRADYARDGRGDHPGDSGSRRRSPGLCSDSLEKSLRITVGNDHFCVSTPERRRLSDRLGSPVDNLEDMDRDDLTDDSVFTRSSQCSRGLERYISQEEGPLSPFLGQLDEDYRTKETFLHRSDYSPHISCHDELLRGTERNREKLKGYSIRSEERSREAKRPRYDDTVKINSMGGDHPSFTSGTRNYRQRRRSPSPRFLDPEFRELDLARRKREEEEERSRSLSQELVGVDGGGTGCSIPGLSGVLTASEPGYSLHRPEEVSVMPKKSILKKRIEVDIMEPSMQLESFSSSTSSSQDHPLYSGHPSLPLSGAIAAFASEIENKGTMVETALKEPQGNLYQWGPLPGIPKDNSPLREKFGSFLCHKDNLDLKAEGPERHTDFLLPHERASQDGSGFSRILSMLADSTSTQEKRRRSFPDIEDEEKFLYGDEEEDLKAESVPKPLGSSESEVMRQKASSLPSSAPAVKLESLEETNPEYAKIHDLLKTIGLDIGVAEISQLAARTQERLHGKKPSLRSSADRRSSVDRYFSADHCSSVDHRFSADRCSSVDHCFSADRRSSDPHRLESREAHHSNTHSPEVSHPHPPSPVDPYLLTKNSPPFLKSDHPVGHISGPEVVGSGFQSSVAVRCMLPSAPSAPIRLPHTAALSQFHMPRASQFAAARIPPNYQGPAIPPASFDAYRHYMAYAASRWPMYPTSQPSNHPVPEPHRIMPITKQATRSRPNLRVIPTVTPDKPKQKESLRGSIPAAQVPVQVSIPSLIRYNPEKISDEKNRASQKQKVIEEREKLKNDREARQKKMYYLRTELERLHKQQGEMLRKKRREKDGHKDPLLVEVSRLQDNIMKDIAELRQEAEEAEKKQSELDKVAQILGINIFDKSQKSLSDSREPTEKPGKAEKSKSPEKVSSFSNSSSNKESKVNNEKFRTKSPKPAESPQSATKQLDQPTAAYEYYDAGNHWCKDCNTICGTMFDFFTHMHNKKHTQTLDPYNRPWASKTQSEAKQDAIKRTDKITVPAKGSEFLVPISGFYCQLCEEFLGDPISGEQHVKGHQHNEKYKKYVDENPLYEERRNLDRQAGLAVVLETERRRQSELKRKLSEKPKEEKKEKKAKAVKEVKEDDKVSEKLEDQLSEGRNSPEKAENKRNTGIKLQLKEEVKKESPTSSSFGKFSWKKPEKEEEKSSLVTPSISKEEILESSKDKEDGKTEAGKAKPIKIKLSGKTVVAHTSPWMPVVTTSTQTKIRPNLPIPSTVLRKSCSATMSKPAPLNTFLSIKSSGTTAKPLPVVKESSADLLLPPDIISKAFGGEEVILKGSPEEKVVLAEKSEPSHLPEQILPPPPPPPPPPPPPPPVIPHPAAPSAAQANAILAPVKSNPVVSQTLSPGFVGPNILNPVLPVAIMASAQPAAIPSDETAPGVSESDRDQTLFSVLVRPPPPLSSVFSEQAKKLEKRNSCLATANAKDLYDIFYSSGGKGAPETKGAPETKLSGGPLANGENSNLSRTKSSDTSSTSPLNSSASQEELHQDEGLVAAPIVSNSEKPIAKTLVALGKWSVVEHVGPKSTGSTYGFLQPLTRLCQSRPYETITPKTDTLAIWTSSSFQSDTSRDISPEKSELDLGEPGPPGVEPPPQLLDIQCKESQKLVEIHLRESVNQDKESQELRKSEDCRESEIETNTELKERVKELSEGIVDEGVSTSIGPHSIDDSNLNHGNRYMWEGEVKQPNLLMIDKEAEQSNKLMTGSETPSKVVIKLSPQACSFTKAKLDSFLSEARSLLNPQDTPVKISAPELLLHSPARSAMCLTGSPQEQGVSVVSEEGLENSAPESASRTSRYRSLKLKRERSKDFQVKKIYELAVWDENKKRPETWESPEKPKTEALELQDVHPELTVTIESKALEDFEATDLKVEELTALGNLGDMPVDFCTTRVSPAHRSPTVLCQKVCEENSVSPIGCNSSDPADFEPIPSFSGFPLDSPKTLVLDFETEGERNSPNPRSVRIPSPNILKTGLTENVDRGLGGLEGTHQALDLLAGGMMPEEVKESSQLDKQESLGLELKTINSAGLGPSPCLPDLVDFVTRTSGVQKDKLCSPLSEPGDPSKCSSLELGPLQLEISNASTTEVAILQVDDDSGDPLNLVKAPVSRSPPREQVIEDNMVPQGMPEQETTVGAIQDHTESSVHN
UniProt Q5BKZ1: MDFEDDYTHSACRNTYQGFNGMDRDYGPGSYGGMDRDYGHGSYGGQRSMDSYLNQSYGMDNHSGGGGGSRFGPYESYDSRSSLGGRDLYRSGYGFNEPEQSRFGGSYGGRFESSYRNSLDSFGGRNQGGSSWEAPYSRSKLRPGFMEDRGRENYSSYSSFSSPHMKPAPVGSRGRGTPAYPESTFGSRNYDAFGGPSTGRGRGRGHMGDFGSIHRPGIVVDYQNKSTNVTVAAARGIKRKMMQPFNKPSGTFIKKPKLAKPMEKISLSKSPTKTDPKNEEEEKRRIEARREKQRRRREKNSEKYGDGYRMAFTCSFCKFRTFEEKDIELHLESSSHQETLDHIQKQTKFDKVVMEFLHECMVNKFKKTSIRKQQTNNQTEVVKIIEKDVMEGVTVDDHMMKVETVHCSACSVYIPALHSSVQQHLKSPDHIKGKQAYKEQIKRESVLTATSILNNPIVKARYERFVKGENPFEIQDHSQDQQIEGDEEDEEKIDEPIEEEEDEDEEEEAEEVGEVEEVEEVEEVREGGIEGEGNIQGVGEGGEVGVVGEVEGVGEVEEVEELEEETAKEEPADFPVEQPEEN
UniProt Q9Y3S2: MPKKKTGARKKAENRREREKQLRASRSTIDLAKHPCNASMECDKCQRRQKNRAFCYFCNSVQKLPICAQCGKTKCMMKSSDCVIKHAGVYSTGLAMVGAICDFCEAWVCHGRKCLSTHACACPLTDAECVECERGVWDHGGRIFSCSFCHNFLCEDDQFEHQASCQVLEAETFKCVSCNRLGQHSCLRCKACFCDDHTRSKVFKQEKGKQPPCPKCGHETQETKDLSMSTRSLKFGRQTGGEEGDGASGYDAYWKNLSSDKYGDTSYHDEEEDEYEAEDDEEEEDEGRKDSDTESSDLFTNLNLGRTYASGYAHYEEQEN

Biological target: ZNF318 (UniProt Q5VUA4)
Assay: log2 fold change, soluble protein after heating vs DMSO (PISA); higher = thermal stabilisation; K562 cells, 10 uM, 30 min; active = over 0.2 and 3.5 SD of the protein, either way, in both replicates (recomputed)
Summary of the method: (§1)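 K562 cells at 2×10^6 cells/mL were treated for 30 min with 10 μM compound, and aliquots were heated for 3 min over 48°C-58°C before pooling. Extraction used PBS with 0.5% NP-40 at 4°C, and soluble protein was the supernatant after 21,000xg for 90 min, measured by TMTpro 16plex LC-MS/MS with channel sums equalised. Thermal stability values, relative to control samples and from duplicates, are log2 fold changes.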

log2 fold change, inactive:
COc1cc(C(=O)O)ccc1NC(=O)[C@@H]1N[C@@H](CC(C)(C)C)[C@](C#N)(c2ccc(Cl)cc2F)[C@H]1c1cccc(Cl)c1F [idasanutlin] -0.008, Cn1cc(-c2ccc3nnc(C(F)(F)c4ccc5ncccc5c4)n3n2)cn1 -0.018, Cn1cc(-c2ccc3c(c2)CCN3C(=O)Cc2cccc(C(F)(F)F)c2)c2c(N)ncnc21 0.039, O=C1c2ccccc2-c2n[nH]c3cccc1c23 0.016, Oc1cc(-c2nc(-c3ccccc3)[nH]c2-c2ccncc2)ccc1Cl -0.443, Cc1ccc(NC(=O)c2cccc(N(C)C)c2)cc1NC(=O)c1ccc(O)cc1 0.158, CC(C)C[C@@H](C=O)NC(=O)[C@H](CC(C)C)NC(=O)[C@H](CC(C)C)NC(=O)OCc1ccccc1 (Cbz-Leu-Leu-Leu-aldehyde) -0.05, CC(=O)c1cnc2ccc(-c3cc(Cl)c(O)c(Cl)c3)nc2c1N[C@H]1CC[C@H](CN(C)C)CC1 -0.098, O=C1NC(=NCc2cccs2)S/C1=C\c1ccc2ncccc2c1 0.007, CC(C)(C)Cn1c(N)nc2ccc(-c3[nH]c(C(C)(C)C)nc3-c3ccc(F)cc3)nc21 [ralimetinib] -0.354, Cc1ccc(C(=O)N(CCCN)[C@@H](c2nc3cc(Cl)ccc3c(=O)n2Cc2ccccc2)C(C)C)cc1 [ispinesib] -0.072, NC(=O)c1cnc(N[C@@H]2CCCC[C@@H]2N)nc1Nc1cccc(-n2nccn2)c1 0.002, CO[C@H]1C[C@@H]2CC[C@@H](C)[C@@](O)(O2)C(=O)C(=O)N2CCCC[C@H]2C(=O)O[C@H]([C@H](C)C[C@@H]2CC[C@H](n3cnnn3)[C@H](OC)C2)CC(=O)[C@H](C)/C=C(\C)[C@@H](O)[C@@H](OC)C(=O)[C@H](C)C[C@H](C)/C=C/C=C/C=C/1C [zotarolimus] -0.032, C[C@@H](N)c1ccc(C(=O)Nc2ccnc3[nH]ccc23)cc1 -0.152, C/C(=N\NC(=O)c1cccc(S(=O)(=O)N2CCOCC2)c1)c1cc(Cl)ccc1O -0.044

Biological target: ZNF326 (UniProt Q5BKZ1)
Assay: as above
Summary of the method: as §1

log2 fold change, inactive:
Cn1cc(-c2ccc3nnc(C(F)(F)c4ccc5ncccc5c4)n3n2)cn1 0.003, Oc1cc(-c2nc(-c3ccccc3)[nH]c2-c2ccncc2)ccc1Cl 0.004, Cc1ccc(NC(=O)c2cccc(N(C)C)c2)cc1NC(=O)c1ccc(O)cc1 -0.043, CC(C)C[C@@H](C=O)NC(=O)[C@H](CC(C)C)NC(=O)[C@H](CC(C)C)NC(=O)OCc1ccccc1 (Cbz-Leu-Leu-Leu-aldehyde) 0.071, CC(C)(C)Cn1c(N)nc2ccc(-c3[nH]c(C(C)(C)C)nc3-c3ccc(F)cc3)nc21 [ralimetinib] 0.152, Cc1ccc(C(=O)N(CCCN)[C@@H](c2nc3cc(Cl)ccc3c(=O)n2Cc2ccccc2)C(C)C)cc1 [ispinesib] -0.202

Biological target: ZNF330 (UniProt Q9Y3S2)
Assay: as above
Summary of the method: as §1

log2 fold change, inactive:
C=CC(=O)N1CCC[C@@H](n2nc(-c3ccc(Oc4ccccc4)cc3)c3c(N)ncnc32)C1 [ibrutinib] 0.006, COc1cc(C(=O)O)ccc1NC(=O)[C@@H]1N[C@@H](CC(C)(C)C)[C@](C#N)(c2ccc(Cl)cc2F)[C@H]1c1cccc(Cl)c1F [idasanutlin] 0.082, CCCc1cc(C)[nH]c(=O)c1CNC(=O)c1cc(-c2ccnc(N3CCN(C)CC3)c2)cc2c1cnn2C(C)C -0.016, CC[C@H](C)n1cc(C)c2c(C(=O)NCc3c(C)cc(C)[nH]c3=O)cc(-c3ccc(N4CCNCC4)nc3)cc21 0.065, Cn1cc(-c2ccc3nnc(C(F)(F)c4ccc5ncccc5c4)n3n2)cn1 0.005, Cn1cc(-c2ccc3c(c2)CCN3C(=O)Cc2cccc(C(F)(F)F)c2)c2c(N)ncnc21 -0.018, O=C1c2ccccc2-c2n[nH]c3cccc1c23 -0.042, Oc1cc(-c2nc(-c3ccccc3)[nH]c2-c2ccncc2)ccc1Cl -0.087, Cc1ccc(NC(=O)c2cccc(N(C)C)c2)cc1NC(=O)c1ccc(O)cc1 0, CC(C)C[C@@H](C=O)NC(=O)[C@H](CC(C)C)NC(=O)[C@H](CC(C)C)NC(=O)OCc1ccccc1 (Cbz-Leu-Leu-Leu-aldehyde) 0.11, CC(=O)c1cnc2ccc(-c3cc(Cl)c(O)c(Cl)c3)nc2c1N[C@H]1CC[C@H](CN(C)C)CC1 -0.023, O=C(O)c1ccc2c(c1)nc(Nc1cccc(Cl)c1)c1ccncc12 [silmitasertib] 0.05, O=C1NC(=NCc2cccs2)S/C1=C\c1ccc2ncccc2c1 0.006, COc1cccc2cc(-c3nc([C@H]4CC[C@H](C(=O)O)CC4)n4ncnc(N)c34)[nH]c12 -0.08, CC(C)(C)Cn1c(N)nc2ccc(-c3[nH]c(C(C)(C)C)nc3-c3ccc(F)cc3)nc21 [ralimetinib] -0.022, Cc1ccc(C(=O)N(CCCN)[C@@H](c2nc3cc(Cl)ccc3c(=O)n2Cc2ccccc2)C(C)C)cc1 [ispinesib] -0.1, O=C1NC(=O)/C(=C\c2ccc3nccnc3c2)S1 0.022, Cc1ncc(-c2ccnc(Nc3ccc(S(C)(=O)=O)cc3)n2)n1C(C)C -0.023, FC(F)(F)c1ccc(/C=C/c2nc(COc3ccc(CCCCn4ccnn4)cc3)co2)cc1 [mubritinib] 0.026, NC(=O)c1cnc(N[C@@H]2CCCC[C@@H]2N)nc1Nc1cccc(-n2nccn2)c1 -0.078, Cc1ccc(NC(=O)c2ccc(CN3CC[C@H](N(C)C)C3)c(C(F)(F)F)c2)cc1Nc1nccc(-c2cncnc2)n1 [bafetinib] -0.011, CO[C@H]1C[C@@H]2CC[C@@H](C)[C@@](O)(O2)C(=O)C(=O)N2CCCC[C@H]2C(=O)O[C@H]([C@H](C)C[C@@H]2CC[C@H](n3cnnn3)[C@H](OC)C2)CC(=O)[C@H](C)/C=C(\C)[C@@H](O)[C@@H](OC)C(=O)[C@H](C)C[C@H](C)/C=C/C=C/C=C/1C [zotarolimus] 0.002, C[C@@H](N)c1ccc(C(=O)Nc2ccnc3[nH]ccc23)cc1 0.033, Cc1nc(Nc2n[nH]c3c2CN(C(=O)N[C@H](CN(C)C)c2ccccc2)C3(C)C)c2sccc2n1 -0.041, C/C(=N\NC(=O)c1cccc(S(=O)(=O)N2CCOCC2)c1)c1cc(Cl)ccc1O -0.017, NC1(c2ccc(-c3nc4ccn5c(=O)[nH]nc5c4cc3-c3ccccc3)cc2)CCC1 0.033, CCN(CCCOc1ccc2c(Nc3cc(CC(=O)Nc4cccc(F)c4)[nH]n3)ncnc2c1)CCOP(=O)(O)O [barasertib] -0.001, Cc1cn(-c2cc(NC(=O)c3ccc(C)c(Nc4nccc(-c5cccnc5)n4)c3)cc(C(F)(F)F)c2)cn1 [nilotinib] 0.057, COc1cc(Nc2ncc3c(n2)-c2ccc(Cl)cc2C(c2c(F)cccc2OC)=NC3)ccc1C(=O)O [alisertib] -0.03, COc1cc2ncnc(Nc3ccc(F)c(Cl)c3)c2cc1OCCCN1CCOCC1 [gefitinib] -0.008
